# PMC7819943, “Rice protein-binding microarrays: a tool to detect cis-acting elements near promoter regions in rice”
# The chains behind the UniProt entries cited, without tags or fusion partners.
# UniProt Q0JBA9, entry or part of it: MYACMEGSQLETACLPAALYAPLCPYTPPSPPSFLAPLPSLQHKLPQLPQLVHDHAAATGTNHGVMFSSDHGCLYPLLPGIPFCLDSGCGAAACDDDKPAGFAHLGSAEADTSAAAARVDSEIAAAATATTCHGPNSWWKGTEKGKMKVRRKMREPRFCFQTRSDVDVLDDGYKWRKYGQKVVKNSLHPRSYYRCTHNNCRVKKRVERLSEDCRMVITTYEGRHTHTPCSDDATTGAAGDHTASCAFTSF
# This is one part of the list.
# Target: OsWRKY34 (Oryza sativa, UniProt Q0JBA9 1-250)
# Assay: protein-binding microarray (RPBM); PBS, 2% BSA, 51.3 ng/ul salmon testes DNA, 50 uM zinc acetate, 200 nM TF, 25 C, 1 h; high values mean tight binding
# Conditions: protein: recombinant; tags: N-terminal polyhistidine and DsRed monomer fusion (pET32a); label: CyDye5-dUTP incorporated in the synthesized complementary strand; 3' TTTTT single-stranded linker to array surface; dsDNA, one strand shown
# Method in brief: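 Binding signal is reported as fluorescence intensity per feature (arbitrary units) from an Axon 4000B scanner. Incubation used 200 nM of each Ni–NTA-purified, N-terminally polyhistidine- and DsRed-fused transcription factor from E. coli BL21-CodonPlus on a double-stranded custom Agilent array for 1 h at 25 °C, with 50 µM zinc acetate in the buffer, followed by washing.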
row,Sequence,binding signal
1,ATGATGTCGCTGTCTGTCGGTTCCCTCTGGGCCCCACCCGCGGAGTCACCTAGTGCAG,8740 fluorescence intensity (a.u.)
2,TCTAGGTACAGAATACGCCACATTTGTTACATCTCTCTAGCGGAGTCACCTAGTGCAG,8040 fluorescence intensity (a.u.)
3,TATCGGTCTCTCTTTTTTTTTATTTGACACCGTCATTACCCGGAGTCACCTAGTGCAG,8120 fluorescence intensity (a.u.)
4,CAGTTTCATCCCATTCATGTTCATGTTTTTGTTTTCTTTTCGGAGTCACCTAGTGCAG,13400 fluorescence intensity (a.u.)
5,ATATTTTGCTTATACTGTTTGACCACTCGTCTTATTAAAACGGAGTCACCTAGTGCAG,8790 fluorescence intensity (a.u.)
6,ACCTTATCTACTCGCGTGGGCCCCGCCAGCTCGACCGACTCGGAGTCACCTAGTGCAG,8830 fluorescence intensity (a.u.)
7,GCCACCTCACCATCGTACCATCACTACCCAGTCATCACGACGGAGTCACCTAGTGCAG,10100 fluorescence intensity (a.u.)
8,CTCCATCACTGCGCCACATGCAGCCTGCCGTTTCGAAAACCGGAGTCACCTAGTGCAG,10200 fluorescence intensity (a.u.)
9,CGCAACTTTAAAATAGGTCAAATGTACAGTTGACCCAAAACGGAGTCACCTAGTGCAG,13400 fluorescence intensity (a.u.)
10,AGGTTTTCTCCCACTTTGGTTCGACAACATGTTCCTCAATCGGAGTCACCTAGTGCAG,10300 fluorescence intensity (a.u.)
11,CAACACATCTCTTGCATTTTTTTTTCTTTGCATTCTCATTCGGAGTCACCTAGTGCAG,8200 fluorescence intensity (a.u.)
12,GTATTTGTTGTCATCGTTTTCTTCGTGTCCTTTCATGATCCGGAGTCACCTAGTGCAG,10300 fluorescence intensity (a.u.)
13,TATTATAACTTTATAAGTCGTTTGACTTTTTTTTCCAGTTCGGAGTCACCTAGTGCAG,12800 fluorescence intensity (a.u.)
14,GTCGTCTCTCGCCCACTTCGTCGCTCGCTCGCTCATTAATCGGAGTCACCTAGTGCAG,12900 fluorescence intensity (a.u.)
15,GATGCAACCGCTCTACTTCCCAACCATCCGACACCACATTCGGAGTCACCTAGTGCAG,8810 fluorescence intensity (a.u.)
16,GAGATCACTTTCTTGGTTGAGGTGGTGGCTTTGATCTGACCGGAGTCACCTAGTGCAG,8210 fluorescence intensity (a.u.)
17,AGAGAGGGAAGGGAGGGAGGGAGGGAGGAGGGAGAGATCTCGGAGTCACCTAGTGCAG,11700 fluorescence intensity (a.u.)
18,GGCTATCGGTGGGTGGGTGGGGTGTACTACTCCCCTATAACGGAGTCACCTAGTGCAG,22200 fluorescence intensity (a.u.)
19,CGCTGGGTCACCAACCTTCGCTGCCACATCGTCTCTCCTCCGGAGTCACCTAGTGCAG,8780 fluorescence intensity (a.u.)
20,CATCCCTATTCTTTCGACCGTGGCATATAATATGTCTATTCGGAGTCACCTAGTGCAG,9920 fluorescence intensity (a.u.)
21,AGCTCCACCTCCATGGCCGCAAAGCACCATCCTCTCGCATCGGAGTCACCTAGTGCAG,8850 fluorescence intensity (a.u.)

# 2 entries drawn at random from those above:
row,Sequence,binding signal
17,AGAGAGGGAAGGGAGGGAGGGAGGGAGGAGGGAGAGATCTCGGAGTCACCTAGTGCAG,11700 fluorescence intensity (a.u.)
1,ATGATGTCGCTGTCTGTCGGTTCCCTCTGGGCCCCACCCGCGGAGTCACCTAGTGCAG,8740 fluorescence intensity (a.u.)

# Later entries:

row,Sequence,binding signal
1,GTGGTAACTTTGTTAATCTCAAGATACGTTGACTTAGTCTCGGAGTCACCTAGTGCAG,9280 fluorescence intensity (a.u.)
2,CATCTACGTGCTCTCTTTGGTTGGGGTGTTCTTGCTGCTACGGAGTCACCTAGTGCAG,17700 fluorescence intensity (a.u.)
3,CCTTCACTTCTTCCTCATTGCTCTTTGTTTGTGGAGCAATCGGAGTCACCTAGTGCAG,9510 fluorescence intensity (a.u.)
4,CCTCTTGCCACTACTATTTCTAGTAGTCGTGTATCATCATCGGAGTCACCTAGTGCAG,8180 fluorescence intensity (a.u.)
5,TACATCCGTTTCCGTTTCGTTCTGTTCTGTTCTGTTGTTTCGGAGTCACCTAGTGCAG,29200 fluorescence intensity (a.u.)
6,AGATGGTTGGGAATGGCTTAGGGAGGGGCTGCTAATTCGGCGGAGTCACCTAGTGCAG,12400 fluorescence intensity (a.u.)
7,CCGCATCCGTATCCGCACGTCATCCGCATCCGTTTAAAAACGGAGTCACCTAGTGCAG,10400 fluorescence intensity (a.u.)
8,TACACTAATCTATCTACTGGAGTACTTCAGCAACATTTTCCGGAGTCACCTAGTGCAG,9640 fluorescence intensity (a.u.)
9,CGAAATCTCCGAACCATACCGCCATAATTCGCACGCACACCGGAGTCACCTAGTGCAG,8030 fluorescence intensity (a.u.)
10,CCACAATTTTGACATGCCACATTTTCTACTCTTTTGGTCCCGGAGTCACCTAGTGCAG,8660 fluorescence intensity (a.u.)
11,TGTCGTGGACTTGACTTTTTTTTTTAACGTGTGATGACTCCGGAGTCACCTAGTGCAG,10800 fluorescence intensity (a.u.)
12,CCGCCGTCGCCGGCTCGCTCGCTCGCTGCCCATATATACGCGGAGTCACCTAGTGCAG,9960 fluorescence intensity (a.u.)
13,CAGTTTCCATTCTTGTGATTAATATTATCTTTACTTCATTCGGAGTCACCTAGTGCAG,9390 fluorescence intensity (a.u.)
14,ATATTTTAATGAATGACACTGTTGACTTTTTGACAAACGTCGGAGTCACCTAGTGCAG,13300 fluorescence intensity (a.u.)
15,GGGCTGGTGGTGTTCAAGTCGGCGCTGTCGGACCCCTCCGCGGAGTCACCTAGTGCAG,9780 fluorescence intensity (a.u.)
16,TCCCCAAGCGCATCCAGGCCGCCCTCGTCTCCAAGGACGACGGAGTCACCTAGTGCAG,8260 fluorescence intensity (a.u.)
17,CCAAGGTGCGCCACCGCCGCCGCCTGGCTTTGCAGTTCCTCGGAGTCACCTAGTGCAG,8700 fluorescence intensity (a.u.)
18,GCCTATTGATACCCCGTTCTTTCCTATGTTACCAGAGATACGGAGTCACCTAGTGCAG,9600 fluorescence intensity (a.u.)
19,TCCGACACATCTGCCATTGGATGCTCCCTCTTTATCATGTCGGAGTCACCTAGTGCAG,8760 fluorescence intensity (a.u.)
20,TTATTTTTTCCCCACTTTGTTCCGTTTGTCTTCTACCTCCCGGAGTCACCTAGTGCAG,8370 fluorescence intensity (a.u.)
21,TCGGCAGCTAGCTACTTATGTAGCCACTATAGTCCTAGGTCGGAGTCACCTAGTGCAG,9300 fluorescence intensity (a.u.)
